# Data: publication PMC12391806
# The chains behind the UniProt entries cited, without tags or fusion partners.
# UniProt P49674: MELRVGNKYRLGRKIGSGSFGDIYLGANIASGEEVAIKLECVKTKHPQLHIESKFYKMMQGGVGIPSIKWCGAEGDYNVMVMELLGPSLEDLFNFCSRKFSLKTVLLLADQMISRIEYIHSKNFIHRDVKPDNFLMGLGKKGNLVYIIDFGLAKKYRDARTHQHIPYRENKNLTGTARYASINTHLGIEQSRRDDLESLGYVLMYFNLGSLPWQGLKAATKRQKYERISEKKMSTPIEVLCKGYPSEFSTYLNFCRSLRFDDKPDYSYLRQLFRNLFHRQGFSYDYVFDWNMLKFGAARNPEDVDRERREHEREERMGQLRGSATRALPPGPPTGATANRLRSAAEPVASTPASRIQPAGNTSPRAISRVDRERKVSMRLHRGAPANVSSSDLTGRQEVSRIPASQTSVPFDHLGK
# Results are given in words; binding and its absence hold for the method and conditions named. Binding seen in cells or lysates may run through a third protein. Some entries that bind do so weakly or less than the wild type. Where a sequence is shown, tags or fusion partners need not be part of it.
# B1: Flag-tagged SRSF10 truncation mutant 85 to 170 (domain or fragment, UniProt O75494 85-170)
# chain: FAQGDRKTPNQMKAKEGRNVYSSSRYDDYDRYRRSRSRSYERRRSRSRSFDYNYRRSYSPRNSRPTGRPRRSRSHSDNDRFKHRNR
# B2: Flag-tagged SRSF10 with the 85 to 170 region deleted (protein, UniProt O75494)
# chain: MSRYLRPPNTSLFVRNVADDTRSEDLRREFGRYGPIVDVYVPLDFYTRRPRGFAYVQFEDVRDAEDALHNLDRKWICGRQIEIQSFSRSKSNSRSRSKSQPKKEMKAKSRSRSASHTKTRGTSKTDSKTHYKSGSRYEKESRKKEPPRSKSQSRSQSRSRSKSRSRSWTSPKSSGH
# Target: V5-tagged CK1ε (UniProt P49674)
# Test: co-IP; HEK293T cotransfected with Flag-SRSF10 (WT) or its truncation mutants and CK1ε-V5; immunoprecipitated with anti-V5 beads (Fig. 8A, B)
row,binding,Binder
1,binds,B1
2,no binding,B2
